Earlier results as cited in paper PMC10227131 (Pharmacological Reports, 2023).
Where a name gives a salt, the structure may show the parent alone.

System: male Sprague–Dawley rats
Settings: icv 100 nmol, n = 6; data re-used; ref [19]; cited from earlier work
Excerpt: […]. […] […].

## CN1CC[C@]23c4c5ccc(O)c4O[C@H]2[C@@H](O)C=C[C@H]3[C@H]1C5 [morphine, morphine hydrochloride]
  Mean (± SEM) ΔLatency-AUC: 12.0 (± 1.4) s.h
